Measured values from PMC12711061, “Far-infrared irradiation attenuates vessel contraction by activating SERCA2 through disruption of SERCA2 and PLN interaction” (PLOS One, 2025).
These are yes or no findings as the source states them, for the method shown. In cells and extracts the contact can be indirect. Some results given as binding are weak or reduced against the parent protein; the word gives no strength.

Protein sequences, listed by entry. Tags and fused reporters are not part of them. Lines headed by an entry give the natural chain unless they say otherwise; changes in a name come on top. Chains listed by the source or under a name are the forms on record and can include a tag or linker.
YFP-tagged human SERCA2a (P16615, form named): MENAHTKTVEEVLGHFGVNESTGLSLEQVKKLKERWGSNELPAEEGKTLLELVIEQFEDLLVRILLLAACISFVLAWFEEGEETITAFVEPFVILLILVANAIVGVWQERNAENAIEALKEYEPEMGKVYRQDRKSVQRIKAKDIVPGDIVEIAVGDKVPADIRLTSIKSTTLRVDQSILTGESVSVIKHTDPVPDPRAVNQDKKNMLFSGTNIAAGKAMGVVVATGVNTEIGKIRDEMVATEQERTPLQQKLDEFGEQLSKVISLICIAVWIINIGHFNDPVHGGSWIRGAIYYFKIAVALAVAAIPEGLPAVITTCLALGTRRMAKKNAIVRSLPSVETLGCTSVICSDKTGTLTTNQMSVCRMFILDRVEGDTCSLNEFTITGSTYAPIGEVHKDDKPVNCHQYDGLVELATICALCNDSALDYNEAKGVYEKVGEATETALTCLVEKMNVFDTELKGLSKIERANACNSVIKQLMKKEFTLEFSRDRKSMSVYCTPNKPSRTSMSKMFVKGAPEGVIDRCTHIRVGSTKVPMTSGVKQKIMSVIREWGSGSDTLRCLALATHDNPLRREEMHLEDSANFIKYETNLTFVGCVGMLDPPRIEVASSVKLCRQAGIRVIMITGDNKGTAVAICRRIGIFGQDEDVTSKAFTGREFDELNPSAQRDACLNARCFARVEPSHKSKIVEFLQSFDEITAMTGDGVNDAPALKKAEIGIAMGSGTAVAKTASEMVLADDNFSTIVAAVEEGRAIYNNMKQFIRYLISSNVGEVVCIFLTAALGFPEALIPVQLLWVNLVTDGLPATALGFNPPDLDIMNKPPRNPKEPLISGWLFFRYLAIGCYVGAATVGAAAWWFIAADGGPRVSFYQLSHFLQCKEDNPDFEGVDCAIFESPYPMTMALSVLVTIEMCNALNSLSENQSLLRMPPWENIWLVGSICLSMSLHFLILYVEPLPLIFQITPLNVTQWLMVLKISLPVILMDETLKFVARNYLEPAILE
UniProt P26678: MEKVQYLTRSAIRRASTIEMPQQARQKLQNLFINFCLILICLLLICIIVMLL

Target: YFP-tagged human SERCA2a (human) (UniProt P16615)
Assay: FRET or BRET; HEK293T cells co-transfected with CFP-tagged PLN and YFP-tagged SERCA2a; microplate reader, excitation 480 nm, emission 530 nm, fluorescence normalised to total protein; cells kept 30 min at RT, irradiated with FIR ray 30 min at RT, or kept 30 min at 39°C

With “CFP-tagged human PLN (from UniProt P26678 1-52)” the binding was “binds”.
